Experimental data: PubChem BioAssay AID743124 (Broad Institute, 2013)
Inconclusive means that the source gave no clear call. Such entries were picked first, then a sample of the others. Calls of active or inactive are those of the source.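 The calls were made as follows: active = compounds whose fitted half-maximal concentration is at most twice their own top valid dose, with signal falling; inconclusive = flat curve with 30 to 70% inhibition, or poor fit; inactive = the rest.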

Test: inhibitors of CFW-induced Rlm1 reporter, dose response, S. cerevisiae, lacZ luminescence, calcofluor white, dry powder (AID 743124)
Conditions: luminescence 4 h; at 35 µM (top of the series)

| Structure (SMILES) | activity change, negative = inhibition |
| --- | --- |
| CCOc1ccc(OCCn2c(=S)[nH]c3ccccc32)cc1 | inconclusive: -45.5% |
| CCOC(=O)c1c(-c2ccc(F)cc2)csc1NC(=O)CN1CCN(CC)CC1 | inactive: -5.43% |
| Cc1cccc(OCCn2c(=S)[nH]c3cc(C(F)(F)F)ccc32)c1 | inconclusive: -49.2% |
| c1ccc(OCCn2cnc3ccccc32)cc1 | inconclusive: -36.2% |
| Cc1ccccc1OCCn1c(=S)[nH]c2ccccc21 | inactive: -14.7% |
